Measurements from PMC6895051.
Changes are numbered by the printed parent chain. Results are given in words; binding and its absence hold for the method and conditions named. In cells and extracts the contact can be indirect. Some entries that bind do so weakly or less than the wild type. For some of these results: Sequences can lack the tags named with a protein.

Experiments:
[1] = molecular target: T1, FLAG-tagged kinase-dead Aurora-A (D274A) (UniProt O14965); assay: co-IP; FLAG-tagged Aurora-A (WT or KD) co-expressed with HA-tagged LDHA/B in 293T cells; anti-Flag M2-agarose 2 h at 4 °C, WB; also with MLN8237
T1 sequence: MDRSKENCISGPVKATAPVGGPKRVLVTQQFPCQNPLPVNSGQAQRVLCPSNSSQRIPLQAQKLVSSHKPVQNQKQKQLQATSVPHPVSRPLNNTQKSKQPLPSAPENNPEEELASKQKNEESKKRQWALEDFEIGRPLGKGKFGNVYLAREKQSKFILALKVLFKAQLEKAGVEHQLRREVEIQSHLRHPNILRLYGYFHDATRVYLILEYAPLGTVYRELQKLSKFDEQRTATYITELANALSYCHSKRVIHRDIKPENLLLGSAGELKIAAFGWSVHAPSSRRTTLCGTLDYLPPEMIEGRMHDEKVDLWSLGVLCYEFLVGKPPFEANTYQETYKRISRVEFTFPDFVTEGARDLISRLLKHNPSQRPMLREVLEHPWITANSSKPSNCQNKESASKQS

FLAG-tagged Aurora-A = molecular target: T2, FLAG-tagged Aurora-A (UniProt O14965); assay: as above
T2 sequence: T1 sequence with A274D

mRuby2-Aurora-A [2] = molecular target: T3, mRuby2-Aurora-A (UniProt O14965); assay: FRET or BRET; as a6, mitotic cells expressing Clover-LDHB and mRuby-Aurora-A
T3 sequence: T1 sequence with A274D

mRuby2-Aurora-A [3] = molecular target: T3, mRuby2-Aurora-A; assay: FRET or BRET; DLD1 cells transfected with Clover-LDH and mRuby2-Aurora-A, 200 μM CoCl2 for 10 h, fixed with 4% PFA; signal in the cytoplasm

| binding [1] | binding (FLAG-tagged Aurora-A) | binding (mRuby2-Aurora-A [2]) | binding (mRuby2-Aurora-A [3]) | Substance |
| --- | --- | --- | --- | --- |
| binds | binds |  |  | HA-tagged LDHB (from UniProt P07195 2-334) (enzyme) |
|  |  | no binding (condition: in mitotic cells) | binds | Clover-LDHB (from UniProt P07195 2-334) (enzyme) |
